Experimental data reported in paper PMC11449124.
Results are given in words; binding and its absence hold for the method and conditions named. Binding seen in cells or lysates may run through a third protein. Some results given as binding are weak or reduced against the parent protein; the word gives no strength.

Amino acid sequences for entries named in this document (tags omitted). A change or cut given only in a name is not applied to a line headed by its entry.
UniProt P84077: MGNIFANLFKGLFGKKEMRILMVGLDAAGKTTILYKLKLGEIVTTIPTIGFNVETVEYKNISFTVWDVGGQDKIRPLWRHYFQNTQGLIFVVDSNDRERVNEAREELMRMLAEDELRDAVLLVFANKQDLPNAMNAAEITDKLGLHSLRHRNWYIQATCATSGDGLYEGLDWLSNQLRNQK
UniProt P50851: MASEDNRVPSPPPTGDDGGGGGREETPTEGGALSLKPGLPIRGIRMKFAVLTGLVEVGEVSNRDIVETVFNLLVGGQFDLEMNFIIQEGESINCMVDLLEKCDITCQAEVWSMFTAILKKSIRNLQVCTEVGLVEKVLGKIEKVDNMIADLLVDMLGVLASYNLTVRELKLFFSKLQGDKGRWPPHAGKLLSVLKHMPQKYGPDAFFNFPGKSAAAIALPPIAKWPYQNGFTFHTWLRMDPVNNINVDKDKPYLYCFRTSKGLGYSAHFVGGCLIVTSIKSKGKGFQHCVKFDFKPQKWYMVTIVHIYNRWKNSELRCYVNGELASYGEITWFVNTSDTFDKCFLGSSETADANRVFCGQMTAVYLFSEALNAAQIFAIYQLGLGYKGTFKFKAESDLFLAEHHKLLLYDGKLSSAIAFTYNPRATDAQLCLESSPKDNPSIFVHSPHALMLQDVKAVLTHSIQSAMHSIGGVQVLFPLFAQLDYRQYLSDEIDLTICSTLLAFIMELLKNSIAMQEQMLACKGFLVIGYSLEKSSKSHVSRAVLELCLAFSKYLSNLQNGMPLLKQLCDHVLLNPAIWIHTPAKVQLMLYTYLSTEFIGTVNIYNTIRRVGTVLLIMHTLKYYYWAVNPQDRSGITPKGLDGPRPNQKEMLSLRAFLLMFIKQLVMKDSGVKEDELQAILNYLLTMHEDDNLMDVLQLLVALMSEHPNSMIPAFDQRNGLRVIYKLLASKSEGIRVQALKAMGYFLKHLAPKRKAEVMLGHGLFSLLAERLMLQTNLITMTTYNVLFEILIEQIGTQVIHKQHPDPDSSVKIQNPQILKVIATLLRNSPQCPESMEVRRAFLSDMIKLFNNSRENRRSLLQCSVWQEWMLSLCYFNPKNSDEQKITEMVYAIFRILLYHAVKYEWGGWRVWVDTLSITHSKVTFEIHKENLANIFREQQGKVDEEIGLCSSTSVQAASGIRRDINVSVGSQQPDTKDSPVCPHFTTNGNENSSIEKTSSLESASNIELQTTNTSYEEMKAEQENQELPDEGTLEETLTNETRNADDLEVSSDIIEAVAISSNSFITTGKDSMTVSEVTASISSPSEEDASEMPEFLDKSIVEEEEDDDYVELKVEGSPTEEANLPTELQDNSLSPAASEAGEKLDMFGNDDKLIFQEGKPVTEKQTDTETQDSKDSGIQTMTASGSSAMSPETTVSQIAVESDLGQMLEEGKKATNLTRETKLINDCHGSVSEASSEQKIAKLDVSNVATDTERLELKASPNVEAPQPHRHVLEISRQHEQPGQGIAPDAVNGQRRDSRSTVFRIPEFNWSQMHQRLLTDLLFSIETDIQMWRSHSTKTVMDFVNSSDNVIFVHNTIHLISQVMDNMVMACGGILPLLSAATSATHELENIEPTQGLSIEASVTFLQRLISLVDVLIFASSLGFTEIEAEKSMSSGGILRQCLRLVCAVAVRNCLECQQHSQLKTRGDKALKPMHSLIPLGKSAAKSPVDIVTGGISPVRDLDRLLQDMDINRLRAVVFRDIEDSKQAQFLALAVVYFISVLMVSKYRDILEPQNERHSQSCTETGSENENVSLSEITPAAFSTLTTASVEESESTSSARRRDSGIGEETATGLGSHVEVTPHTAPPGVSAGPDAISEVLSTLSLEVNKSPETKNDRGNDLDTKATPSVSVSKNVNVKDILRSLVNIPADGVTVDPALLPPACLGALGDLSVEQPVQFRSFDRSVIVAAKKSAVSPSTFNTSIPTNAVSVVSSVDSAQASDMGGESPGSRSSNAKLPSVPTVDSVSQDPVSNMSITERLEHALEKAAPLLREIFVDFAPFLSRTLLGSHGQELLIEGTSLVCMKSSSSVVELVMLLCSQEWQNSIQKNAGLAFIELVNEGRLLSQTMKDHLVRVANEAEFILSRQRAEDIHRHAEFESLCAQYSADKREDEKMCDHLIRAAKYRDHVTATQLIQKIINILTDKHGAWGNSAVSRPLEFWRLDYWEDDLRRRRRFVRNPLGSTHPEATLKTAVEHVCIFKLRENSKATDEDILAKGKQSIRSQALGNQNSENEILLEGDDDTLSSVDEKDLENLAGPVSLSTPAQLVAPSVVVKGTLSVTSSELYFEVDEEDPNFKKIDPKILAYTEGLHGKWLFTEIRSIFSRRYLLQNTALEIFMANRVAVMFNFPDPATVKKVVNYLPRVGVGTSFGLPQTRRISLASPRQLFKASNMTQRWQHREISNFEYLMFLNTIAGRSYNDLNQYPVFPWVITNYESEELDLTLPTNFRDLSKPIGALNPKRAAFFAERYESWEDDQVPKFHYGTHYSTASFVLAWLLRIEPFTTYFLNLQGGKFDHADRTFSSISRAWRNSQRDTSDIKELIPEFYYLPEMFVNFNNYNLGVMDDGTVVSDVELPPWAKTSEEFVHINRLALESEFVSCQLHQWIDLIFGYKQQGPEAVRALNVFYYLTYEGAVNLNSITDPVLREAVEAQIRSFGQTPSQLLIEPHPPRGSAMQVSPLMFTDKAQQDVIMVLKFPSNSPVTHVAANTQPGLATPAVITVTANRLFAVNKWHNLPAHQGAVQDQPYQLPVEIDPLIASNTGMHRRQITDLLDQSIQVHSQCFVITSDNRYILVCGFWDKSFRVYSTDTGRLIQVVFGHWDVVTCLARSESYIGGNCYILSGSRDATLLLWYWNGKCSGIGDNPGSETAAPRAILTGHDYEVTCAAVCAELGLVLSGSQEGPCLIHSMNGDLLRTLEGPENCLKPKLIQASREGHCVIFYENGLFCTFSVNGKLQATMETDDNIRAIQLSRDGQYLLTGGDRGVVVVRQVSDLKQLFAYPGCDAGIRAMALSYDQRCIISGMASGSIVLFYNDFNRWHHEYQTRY

Columns and labels:
Test in all cases: co-IP; Arf1-EGFP constructs captured from transfected HEK293A lysates on GFP-trap magnetic beads, endogenous LRBA detected by immunoblot; 20 mM Tris HCl pH 7.5, 150 mM NaCl, 5 mM MgCl2, 1 mM CaCl2, CHAPS; 4°C, 2 h; 100 nM GTP (Arf1-EGFP, I46S I49S), 100 nM GTPgammaS (Q71L), 100 nM GDPbetaS (T31N)
[1] = biological target: Arf1^(I46S, I49S)-EGFP (UniProt P84077)
[2] = biological target: Arf1^Q71L-EGFP (constitutively active) (UniProt P84077)
[3] = biological target: Arf1^T31N-EGFP (dominant-negative) (UniProt P84077)
[4] = biological target: Arf1-EGFP (UniProt P84077)

Measured: binding

lipopolysaccharide responsive beige-like anchor protein (LRBA) (from UniProt P50851 1-2863)
binds: all assays above
